Experimental data published in patent publication US12291651B2, “Liquid crystal-infused slippery anti-fouling surfaces” (priority 2021, dated 2025).

Test: Droplet sliding time on E7-infused (LC-infused) PTFE SLIPS
Conditions: for sliding time: PBS + 1% DMSO
[1] = 3-oxo-C12-AHL 100 μM and 3-oxo-C12-HS 250 μM, respectively
[2] = water droplets, E7-infused SLIPS, 20°

Question: With `CCCCCCCCCC(=O)CC(=O)N[C@@H]1CCOC1=O` [3-oxo-C12-AHL] as the compound, how does the sliding time [1] read?
Answer: The sliding time was roughly 12 s.

Question: Which “bulk surfactant concentration giving average sliding time 58-62 s (~1 min)” value [2] does the source give for `CCCCCCCCCCCC[N+](C)(C)C.[Br-]` [DTAB, dodecyl-trimethylammonium bromide] here?
Answer: The value was 3 mM.

Question: Which “surfactant concentration required for average sliding time of ~60 s” value does the source give for `CCCCCCCCCCCCCCCC[N+](C)(C)C.[Br-]` [HTAB, hexadecyltrimethylammonium bromide] here?
Answer: The value was 100 µM.

Question: And the “times lower concentration than DTAB for ~60 s sliding time” value [2]?
Answer: The value was roughly 30 times.

Question: With `CCCCCCCCCC(=O)CC(=O)N[C@@H](CCO)C(=O)O` [3-oxo-C12-HS] as the compound, how does the sliding time [1] read?
Answer: Its sliding time is roughly 12 s.

Question: With “3-(3-Hydroxyalkanoyloxy) alkanoic acid [HAA]” as the compound, how does the sliding time (≥12.5 μg/mL HAA, 50 μL, 4 cm, 20°) read?
Answer: The sliding time was roughly 18 s.
